The whole screen tested about 320,000 compounds, of which about 2,100 (0.66%) were called active. Inconclusive results, whose numbers are uncertain, are shown with a selection of clear calls. Calls come from the whole dose curve; as a rule, active = well fitted inhibition curve with a large enough effect in the signal ratio, with a control signal flat (not every such curve was filed as active); inconclusive = small, poorly fitted or top-dose-only effect, or effect the other way, or a change in a side signal; inactive = flat fitted curve, though single readings scatter; the % refers to the signal ratio. Potencies beside an inconclusive call are fits to weak or partial responses and may not hold up.
Test: qHTS Assay for Lipid Storage Modulators in Drosophila S3 Cells
Details: BODIPY lipid droplet fluorescence, 18-24 h, cells fed with added oleic acid; lipid storage change, negative = inhibition: at 46.1 µM (top of the series) unless noted
In short: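 Drosophila S3 cells got compounds at several concentrations plus oleic acid (400 uM solution). Laser-scanning cytometry with 488 nm excitation read lipid droplets at 500-530 nm and cells at 575-640 nm. Percent activity was relative to 20 uM Triacsin C.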
% is set by controls: 0 for no effect and ±100 for the full control effect; potency is the fitted concentration of half-maximal effect.

Lipid storage change, negative = inhibition, inactive:
COC(=O)c1ccccc1CSc1nsc(/C=C/N(C)C)c1C#N

Lipid storage change, negative = inhibition, inconclusive:
C/C(=N\NC(=O)c1nnn(-c2nonc2N)c1COc1ccc(F)cc1)c1ccc(Cl)cc1 15.2%, Cc1c(Cl)cccc1N1C(=O)CC(NNC(=O)c2cccs2)C1=O (stereo not drawn) -26.4%, Cc1c(C)n2c(SCC(=O)N3CCCCC3)nnc2[nH]c1=O -8.57%, Fc1ccccc1N=C1NN=C(c2ccccc2)CS1 -8.41%, COc1ccc(/C=C/C(=O)NCC2COc3ccccc3O2)cc1OC (stereo not drawn) 18%, Cc1cc(C=O)c(C)n1-c1ccc(NC2CCCC2)c([N+](=O)[O-])c1 -15.1%, CCCNC(=S)Nc1cccc(C(F)(F)F)c1 15.9%, CCCCn1c(N)c(N(CC(C)C)C(=O)CCCn2c(=O)oc3ccccc32)c(=O)[nH]c1=O 5.46%, COc1cc(C(=O)N/N=C/c2ccc(OC(=O)c3cccc(C)c3)c(OC)c2)ccc1O 5.85%, COc1ccc(C(CNC(=O)C(C)c2ccc3cc(OC)ccc3c2)N(C)C)cc1 (stereo not drawn) 80.3%, CCOc1cc(NC(=S)Nc2cccc(OC)c2)c(OCC)cc1NC(=O)C1CC1 7.91%, Clc1ccc(-c2nc3ncccn3c2Nc2ccc3c(c2)OCO3)cc1 18.6%, CCn1c(=O)n(CC)c2cc(S(=O)(=O)Nc3c(C)cccc3C)ccc21 -19.4%, CCNc1ccccc(-c2ccc3ccccc3n2)c1=O 24.4%, CCc1ccccc1NC(=O)c1ccc(CN2CCC(Cc3ccccc3)CC2)cc1 31.3%, O=C(COC(=O)c1ccc2c(c1)S(=O)(=O)c1ccccc1C2=O)NC1CC1 -4.49%, COc1ccccc1N(CC(=O)NCCSCc1ccccc1)S(=O)(=O)c1ccc(C)cc1 1.9%, Cc1cc(C)cc(OC(=O)C23CCC(C)(C(=O)O2)C3(C)C)c1 (stereo not drawn) 2.88%, Cc1cccc(C)c1NC(=O)C1c2cccc[n+]2CC(=O)N1Cc1cccs1 (stereo not drawn) -1.85%, COCCCNC(=O)[C@H](CSCc1ccccc1)N1Cc2ccccc2C1=O 8.91%, CCCCn1c(N)c(N(CCC(C)C)C(=O)C2CCCO2)c(=O)[nH]c1=O (stereo not drawn), COc1ccc(C2=NS(=O)(=O)N(C)C(C(=O)N(C)Cc3ccccc3)=C2)cc1 -31.8%, CCN(CC(=O)NCc1ccc(F)cc1)C(=O)C1CCN(C(=O)Nc2ccccc2)CC1 -31.5%, CCCCCCCC(=O)OC(CN1CCCCCC1)CN1CCCC1=O (stereo not drawn) -7.12%, COc1cc(Br)cc(/C=C/c2ccc3cccc(O)c3n2)c1O -26.8%, CC(C)c1cccc(C(C)C)c1NC(=O)COC(=O)C1CCC1, CC(=O)N1N=C(c2cccc(Cl)c2)OC1c1cccc([N+](=O)[O-])c1 (stereo not drawn) 35.9%, O=C(CCn1c(=S)oc2ccccc21)Nc1cccc(O)c1 7.04%, COc1ccccc1NC(=O)C(C)OC(=O)c1cc2ccccc2[nH]1 (stereo not drawn) -38.5%

Potency, inconclusive:
CC1CCN(c2ccc(-c3cccc(NC(=O)c4ccco4)c3)nn2)CC1 4.11 µM [activator, partial curve], O=C(NC1CSCC1OC(=O)c1ccccc1)c1ccccc1 (stereo not drawn) 11.6 µM [activator, single point], O=C(Nc1cccc(S(=O)(=O)N2CCCCC2)c1)c1cc2ccccc2o1 6.51 µM [falling, single point], CCOC(=O)c1[nH]c2ccccc2c1N=C(C)N(CC)CC 18.4 µM [activator, single point], O=C1N(CN2C(=O)C3(OCCO3)c3ccccc32)c2ccccc2C12OCCO2 29.1 µM [activator, single point], CCOC(=O)c1c(C)[nH]c(C)c1S(=O)(=O)N(C)CC(=O)Nc1ccccc1F 2.31 µM [falling, partial curve, poor fit], O=C(Nc1ccc(F)cc1)C(=O)c1cn(CC(=O)N2CCOCC2)c2ccccc12 29.1 µM [activator, single point], COc1ccc(Cl)cc1NC(=O)CCS(=O)(=O)c1cc2c(cc1C)NC(=O)CO2 5.17 µM [falling, partial curve], O=S(=O)(NCc1cccs1)c1ccc(Cl)s1 29.1 µM [activator, single point], Cc1cc(NC(=O)CCc2ccccc2)c([N+](=O)[O-])cc1C 1.64 µM [activator, full curve], O=C1CC(C(=O)Nc2ccccc2)N=C(N2CCOCC2)N1 (stereo not drawn) 4.61 µM [falling, partial curve], CCN1CCN(C(=S)Nc2ccccc2Cl)CC1 0.0065 µM [falling, full curve, poor fit], Cc1cc(O)c(C)c(O)c1/C=N/NC(=O)c1cccnc1 29.1 µM [falling, single point], CC12CCC(=O)N1c1c(sc3nc(N4CCOCC4)c4c(c13)CCCC4)C(=O)N2 (stereo not drawn) 23.1 µM [falling, single point], CC1=C(C#N)C(NC(=O)C2CC2)(C(F)(F)F)C(=O)N1 (stereo not drawn) 29.1 µM [falling, partial curve, poor fit], CS(=O)(=O)N1CCN(c2ccccc2NC(=O)CSc2ccc(Cl)cc2)CC1 0.517 µM [activator, full curve], Cc1cc(Cl)ccc1NC(=O)COC(=O)c1c(C)noc1C 0.103 µM [activator, full curve, poor fit], Cc1ccc(NC(=O)c2ccc3c(=O)n4c(nc3c2)CCC4)cc1F 29.1 µM [falling, single point]

Source: PubChem BioAssay AID2685 (National Center for Advancing Translational Sciences (NCATS), 2010)
